Values from PubChem BioAssay AID1159584 (Peter MacCallum Cancer Centre, 2016)

Assay: 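Genes that CDH1-null MCF10A cells selectively depend on to survive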 (primary screen)
Cells: human MCF10A breast epithelial cells, parental and CDH1-null
Knock-down reagent: siRNA against human genes
Measurement: 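Cell viability by CellTiter-Glo ATP luminescence, each line scaled to the mean of mock wells across plates, then CDH1-null over parental ratio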
Scale: CDH1-null / parental viability ratio: higher = CDH1-null cells survive relatively better than parental; CDH1-null viability vs mock: higher = more viable CDH1-null cells
Units: CDH1-null viability vs mock in fraction of mock
This is an unselected part of about 18,000 reagents. Further read-outs or replicates are left out here. The record does not give: the amount of reagent, the time to read-out.

TTYH2
- CDH1-null / parental viability ratio: 0.86
- CDH1-null viability vs mock: 0.72

TMEM182
- CDH1-null / parental viability ratio: 1.1
- CDH1-null viability vs mock: 0.96

FAM168B
- CDH1-null / parental viability ratio: 0.88
- CDH1-null viability vs mock: 0.52

PANK4
- CDH1-null / parental viability ratio: 0.8
- CDH1-null viability vs mock: 0.66

JMY
- CDH1-null / parental viability ratio: 0.86
- CDH1-null viability vs mock: 0.88

ZNF699
- CDH1-null / parental viability ratio: 1.21
- CDH1-null viability vs mock: 1.04

ATL2
- CDH1-null / parental viability ratio: 1.05
- CDH1-null viability vs mock: 1.15

GALK1
- CDH1-null / parental viability ratio: 0.88
- CDH1-null viability vs mock: 0.75

HOXC10
- CDH1-null / parental viability ratio: 0.88
- CDH1-null viability vs mock: 0.74

TSC1
- CDH1-null / parental viability ratio: 0.96
- CDH1-null viability vs mock: 1

CCND1
- CDH1-null / parental viability ratio: 0.81
- CDH1-null viability vs mock: 0.58

SLC6A16
- CDH1-null / parental viability ratio: 1.06
- CDH1-null viability vs mock: 0.85

FOLH1B
- CDH1-null / parental viability ratio: 1.29
- CDH1-null viability vs mock: 0.8

RMP64
- CDH1-null / parental viability ratio: 0.71
- CDH1-null viability vs mock: 0.36

ANO6
- CDH1-null / parental viability ratio: 1.28
- CDH1-null viability vs mock: 1

MTHFD1
- CDH1-null / parental viability ratio: 0.95
- CDH1-null viability vs mock: 0.8

CARF
- CDH1-null / parental viability ratio: 0.91
- CDH1-null viability vs mock: 0.96

HIP1R
- CDH1-null / parental viability ratio: 1.16
- CDH1-null viability vs mock: 0.88

GPR107
- CDH1-null / parental viability ratio: 1.19
- CDH1-null viability vs mock: 0.86

DNAJB11
- CDH1-null / parental viability ratio: 1.22
- CDH1-null viability vs mock: 0.71

PSMD2
- CDH1-null / parental viability ratio: 1.28
- CDH1-null viability vs mock: 0.41

PARP2
- CDH1-null / parental viability ratio: 0.9
- CDH1-null viability vs mock: 0.74

RDH13
- CDH1-null / parental viability ratio: 0.79
- CDH1-null viability vs mock: 0.53

DOCK5
- CDH1-null / parental viability ratio: 1.2
- CDH1-null viability vs mock: 0.66

Laid out differently: entries from further up.
Gene	CDH1-null / parental viability ratio	CDH1-null viability vs mock
PARP2	0.9	0.74
RDH13	0.79	0.53
